Data as given in paper PMC5818066.
No constants are given. Whether binding was seen depends on the method and setting. Some entries that bind do so weakly or less than the wild type.

Biological target: NUD-2 (C. elegans NudE/L homolog) (C. elegans) (UniProt O45717)
Test: two-hybrid; yeast two-hybrid (Matchmaker); bait in pGBKT7, prey in pGADT7; growth on -Leu/-Trp/-His plates selects for the interaction

binding: binds
B1: NUD-2 (C. elegans NudE/L homolog) (protein, UniProt O45717 1-293)
chain: MDLSEDQIRGLPHHELLGHFLQMREEFNEFQTSSAEIEKMMDSELDDLKTQLKKAETRVQQMTTEQIRNKDRQDDSRVQFAQVEEQLRRENSHLHEQCESQRERIRKLEQRNDVLETSERNKEYLASDLGSKLDHAIEKIAMLESELYERQVAAEEMHRLREEQLRTTERPRLIVEPLRNDPEILPDEPSPGPSKEEFKMSSEDVFMEDVQHHEDVRMEETIAKIDEVRIDDNKNIQEKSQRVSTGTGAGACINRIVKDLMTKVERLDSILSTIRVSNNSSNNNSSHLTTTRA
